Source: publication doi:10.1101/2023.03.06.531310
Substitutions are numbered along the chain they refer to. Names and notes keep the numbering of the source. These are yes or no findings as the source states them, for the method shown. Binding seen in cells or lysates may run through a third protein. Some entries that bind do so weakly or less than the wild type. For some of these results: Tags and fused reporters may be left off the sequences shown. One block for each binder: values may come before it.

Legend:
[1] = molecular target: T1, FLAG-FAM122A I85A/K86A (mouse) (UniProt Q9DB52); assay: co-IP
T1 sequence: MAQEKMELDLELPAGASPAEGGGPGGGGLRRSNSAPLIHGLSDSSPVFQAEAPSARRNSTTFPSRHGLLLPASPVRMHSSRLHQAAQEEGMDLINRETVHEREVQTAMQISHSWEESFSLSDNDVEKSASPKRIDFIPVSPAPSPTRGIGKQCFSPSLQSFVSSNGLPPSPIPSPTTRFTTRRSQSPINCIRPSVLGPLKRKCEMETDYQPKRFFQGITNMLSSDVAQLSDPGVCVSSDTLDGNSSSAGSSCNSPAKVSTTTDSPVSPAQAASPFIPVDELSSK

[2] = molecular target: T2, FLAG-FAM122A R81A-L82A (SLiM mutant) (mouse) (UniProt Q9DB52); assay: co-IP
T2 sequence: T1 sequence with R81A, L82A, A85I, A86K

[3] = molecular target: T3, FLAG-FAM122A S73A (mouse) (UniProt Q9DB52); assay: co-IP
T3 sequence: T1 sequence with S73A, A85I, A86K

[4] = molecular target: FLAG-FAM122A wild type (murine) (mouse) (UniProt Q9DB52); assay: co-IP
FAM122A-C-FAST10 = FAM122A-C-FAST10 (UniProt Q9DB52); assay: split reporter
[5] = molecular target: FLAG-FAM122A wild type (murine) (mouse), Q9DB52; assay: co-IP; settings: remark: other sources report otherwise
Myc-B55α C239G = molecular target: T4, Myc-B55α C239G (UniProt P63151); assay: co-IP
T4 sequence: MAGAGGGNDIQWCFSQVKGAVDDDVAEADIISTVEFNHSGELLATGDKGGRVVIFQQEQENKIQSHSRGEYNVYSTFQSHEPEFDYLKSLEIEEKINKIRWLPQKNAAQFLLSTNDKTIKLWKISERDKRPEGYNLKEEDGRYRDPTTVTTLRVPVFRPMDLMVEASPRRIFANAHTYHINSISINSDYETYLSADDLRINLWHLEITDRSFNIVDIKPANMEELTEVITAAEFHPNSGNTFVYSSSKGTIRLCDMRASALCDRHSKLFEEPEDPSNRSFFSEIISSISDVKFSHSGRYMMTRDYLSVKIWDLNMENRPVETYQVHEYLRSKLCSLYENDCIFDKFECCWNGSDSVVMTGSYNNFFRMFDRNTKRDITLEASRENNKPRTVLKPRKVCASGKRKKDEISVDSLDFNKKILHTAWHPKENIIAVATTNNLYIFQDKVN

Myc-B55α wild type = molecular target: T5, Myc-B55α wild type (UniProt P63151); assay: co-IP
T5 sequence: T4 sequence with G239C

B2: Myc-B55α D197K (protein, UniProt P63151 1-447)
chain: T4 sequence with D197K, G239C
binding [4]: no binding

B3: Myc-B55α C239G (protein, UniProt P63151 1-447)
chain: T4 sequence
binding [4]: binds

B4: B55α-N-FAST (protein, UniProt P63151 1-447)
chain: T4 sequence with G239C
binding (FAM122A-C-FAST10): binds

B7: FLAG-p107 (protein, UniProt P28749 1-1068)
chain: MFEDKPHAEGAAVVAAAGEALQALCQELNLDEGSAAEALDDFTAIRGNYSLEGEVTHWLACSLYVACRKSIIPTVGKGIMEGNCVSLTRILRSAKLSLIQFFSKMKKWMDMSNLPQEFRERIERLERNFEVSTVIFKKYEPIFLDIFQNPYEEPPKLPRSRKQRRIPCSVKDLFNFCWTLFVYTKGNFRMIGDDLVNSYHLLLCCLDLIFANAIMCPNRQDLLNPSFKGLPSDFHTADFTASEEPPCIIAVLCELHDGLLVEAKGIKEHYFKPYISKLFDRKILKGECLLDLSSFTDNSKAVNKEYEEYVLTVGDFDERIFLGADAEEEIGTPRKFTRDTPLGKLTAQANVEYNLQQHFEKKRSFAPSTPLTGRRYLREKEAVITPVASATQSVSRLQSIVAGLKNAPSDQLINIFESCVRNPVENIMKILKGIGETFCQHYTQSTDEQPGSHIDFAVNRLKLAEILYYKILETVMVQETRRLHGMDMSVLLEQDIFHRSLMACCLEIVLFAYSSPRTFPWIIEVLNLQPFYFYKVIEVVIRSEEGLSRDMVKHLNSIEEQILESLAWSHDSALWEALQVSANKVPTCEEVIFPNNFETGNGGNVQGHLPLMPMSPLMHPRVKEVRTDSGSLRRDMQPLSPISVHERYSSPTAGSAKRRLFGEDPPKEMLMDKIITEGTKLKIAPSSSITAENVSILPGQTLLTMATAPVTGTTGHKVTIPLHGVANDAGEITLIPLSMNTNQESKVKSPVSLTAHSLIGASPKQTNLTKAQEVHSTGINRPKRTGSLALFYRKVYHLASVRLRDLCLKLDVSNELRRKIWTCFEFTLVHCPDLMKDRHLDQLLLCAFYIMAKVTKEERTFQEIMKSYRNQPQANSHVYRSVLLKSIPREVVAYNKNINDDFEMIDCDLEDATKTPDCSSGPVKEERGDLIKFYNTIYVGRVKSFALKYDLANQDHMMDAPPLSPFPHIKQQPGSPRRISQQHSIYISPHKNGSGLTPRSALLYKFNGSPSKSLKDINNMIRQGEQRTKKRVIAIDSDAESPAKRVCQENDDVLLKRLQDVVSERANH
binding (Myc-B55α wild type): binds

The next lines start with the values.

binding [1]: no binding
binding [2]: no binding
binding [3]: binds
binding [4]: binds
B1: Myc-B55α wild type (protein, UniProt P63151 1-447)
chain: T4 sequence with G239C

binding [5]: binds
B5: Myc-B55α L225A, P63151 1-447 (protein)
chain: T4 sequence with L225A, G239C

binding (Myc-B55α C239G): binds
B6: p107 substrate (Suppl. Fig. 3) (protein, UniProt P28749 1-1068)
chain: B7 chain
